In the assay the target is T1, AtATG8A, recombinant, for GST pull-down (Arabidopsis thaliana) (UniProt Q8LEM4).
T1 sequence: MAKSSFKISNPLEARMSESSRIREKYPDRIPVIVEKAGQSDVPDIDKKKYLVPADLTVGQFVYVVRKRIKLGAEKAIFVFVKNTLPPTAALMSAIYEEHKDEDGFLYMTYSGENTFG
Nature of the assay: pull-down.

No constants are given. Whether binding was seen depends on the method and setting. In cells and extracts the contact can be indirect. Sequences can lack the tags named with a protein.

For the substance “AtDCP1, recombinant (Arabidopsis thaliana)”, the binding result is “no binding”.
